Experimental data taken from PMC9376389.
No constants are given. Whether binding was seen depends on the method and setting. In cells and extracts the contact can be indirect. Some binding calls cover weakened binding; strength is not graded here.

Chains of the proteins cited; added tags and fusions are not shown.
UniProt P09528: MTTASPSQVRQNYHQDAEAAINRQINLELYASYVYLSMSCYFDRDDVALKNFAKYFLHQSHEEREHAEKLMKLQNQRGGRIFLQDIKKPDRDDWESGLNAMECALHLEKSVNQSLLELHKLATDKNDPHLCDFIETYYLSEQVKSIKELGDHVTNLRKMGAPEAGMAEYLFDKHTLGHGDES

Molecular target: T1, nuclear receptor coactivator 4 (NCOA4) (mouse (endogenous in MLE-12)) (UniProt Q5U4H9)
T1 sequence: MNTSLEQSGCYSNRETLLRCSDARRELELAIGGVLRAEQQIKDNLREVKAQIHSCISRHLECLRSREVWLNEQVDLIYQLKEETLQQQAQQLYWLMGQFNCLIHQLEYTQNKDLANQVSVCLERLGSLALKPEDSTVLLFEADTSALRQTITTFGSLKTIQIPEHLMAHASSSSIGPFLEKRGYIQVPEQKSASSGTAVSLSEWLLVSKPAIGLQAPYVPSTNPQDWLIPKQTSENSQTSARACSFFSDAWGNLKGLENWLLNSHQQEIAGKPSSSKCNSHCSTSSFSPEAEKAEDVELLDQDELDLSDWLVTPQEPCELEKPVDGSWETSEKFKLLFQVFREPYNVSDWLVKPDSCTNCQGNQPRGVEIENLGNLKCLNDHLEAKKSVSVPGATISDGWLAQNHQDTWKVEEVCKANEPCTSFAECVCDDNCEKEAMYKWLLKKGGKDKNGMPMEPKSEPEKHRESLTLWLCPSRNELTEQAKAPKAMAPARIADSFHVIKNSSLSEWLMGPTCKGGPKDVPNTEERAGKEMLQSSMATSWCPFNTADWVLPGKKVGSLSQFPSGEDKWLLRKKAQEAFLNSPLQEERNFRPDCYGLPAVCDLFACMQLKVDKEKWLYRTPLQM
Assay: co-IP; MLE-12 cell lysate (50 mmol/L Tris-HCl, 150 mmol/L NaCl, 1% NP-40, 1 mmol/L EDTA) precleared with rabbit IgG and protein A/G agarose, immunoprecipitated with anti-NCOA4 for 24 h at 4°C, blotted for FTH1; cells with or without LPS and with scramble or YAP1 overexpression; IgG as control

binding: binds
Substance: ferritin heavy chain 1 (FTH1) (from UniProt P09528 1-182)
